These are yes or no findings as the source states them, for the method shown. Some entries that bind do so weakly or less than the wild type.
Tests used:
Bet v 1 [1] = molecular target: T1, Bet v 1 (UniProt P15494); assay: antigen binding test (protein G Sepharose, 125I-Bet v 1) on Superdex200 fractions of the IgG4 mix incubated with erythrocyte lysate
T1 sequence (125I label in the antigen binding and cross-linking tests, looked up): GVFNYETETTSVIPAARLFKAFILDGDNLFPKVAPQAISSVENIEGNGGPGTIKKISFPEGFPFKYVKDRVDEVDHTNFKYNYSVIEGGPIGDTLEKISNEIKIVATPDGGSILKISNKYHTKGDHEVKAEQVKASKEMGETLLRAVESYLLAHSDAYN

Fel d 1 [2] = molecular target: Fel d 1 (UniProt P30438); assay: homologous cross-linking of 125I-Fel d 1 to Sepharose-immobilized Fel d 1, mouse plasma
Fel d 1 [3] = molecular target: Fel d 1 (UniProt P30438); assay: antigen binding test (protein G Sepharose, 125I-Fel d 1) on Superdex200 fractions of plasma of a mouse dosed with the IgG4 mix
Bet v 1 [4] = molecular target: T1, Bet v 1; assay: heterologous cross-linking assay on Superdex200 fractions of mouse plasma
Fel d 1 [5] = molecular target: Fel d 1 (UniProt P30438); assay: as above
Bet v 1 [6] = molecular target: T1, Bet v 1; assay: heterologous cross-linking assay (Fel d 1-Bet v 1) after 24 h with reducing agents
Fel d 1 [7] = molecular target: Fel d 1 (UniProt P30438); assay: as above
Bet v 1 [8] = molecular target: T1, Bet v 1; assay: bispecific activity to Bet v 1 and Fel d 1 in plasma of SCID mice, cross-linking assay
Fel d 1 [9] = molecular target: Fel d 1 (UniProt P30438); assay: as above
Bet v 1 [10] = molecular target: T1, Bet v 1; assay: heterologous cross-linking assay on Superdex200 fractions after 72 h with erythrocytes
Fel d 1 [11] = molecular target: Fel d 1 (UniProt P30438); assay: as above
Bet v 1 [12] = molecular target: T1, Bet v 1; assay: heterologous cross-linking assay on Superdex200 fractions of the IgG4 mix incubated with 0.5 mM GSH
Fel d 1 [13] = molecular target: Fel d 1 (UniProt P30438); assay: as above
Bet v 1 [14] = molecular target: T1, Bet v 1; assay: heterologous cross-linking assay (Sepharose-coupled Fel d 1, 125I-Bet v 1), plasma of nu/nu Balb/c mice
Fel d 1 [15] = molecular target: Fel d 1 (UniProt P30438); assay: as above
Bet v 1 [16] = molecular target: T1, Bet v 1; assay: heterologous cross-linking assay (Sepharose-coupled recombinant Fel d 1, 125I-Bet v 1) after 24 h with blood components
Fel d 1 [17] = molecular target: Fel d 1 (UniProt P30438); assay: as above
Bet v 1 [18] = molecular target: T1, Bet v 1; assay: heterologous cross-linking assay (Sepharose-coupled cat extract, 125I-Bet v 1) on Superdex200 fractions, erythrocyte lysate
Fel d 1 [19] = molecular target: Fel d 1 (UniProt P30438); assay: as above
Bet v 1 [20] = molecular target: T1, Bet v 1; assay: heterologous cross-linking assay (Sepharose-coupled recombinant Fel d 1, 125I-Bet v 1) after 48 h with MNC, erythrocytes or platelets
Fel d 1 [21] = molecular target: Fel d 1 (UniProt P30438); assay: as above

Measured: binding

B1: Betv1-IgG4 (antibody, V domains shown)
VH: EVQLQQSGAELVKPGASVKLSCTASGFNIKDTYIHWVKQRPEQGLEWVGRIDPATGNTRYDPKFQGKATITADTSSNTAYLQLSSLTSEDTAVYYCASFRPGYALDYWGQGTSVTVSS
VL: DIVMTQSHKFMSTSVGDRVSFTCKASQDVFTAVAWYQQKPGQSPKLLIYWASTRRTGVPDRFTGSGSGTDYTLTISSVQAEDLALYYCQQHFSTPPTFGGGTKLEIK
binds: Bet v 1 [1]

B2: Feld1-IgG1 (antibody, V domains shown)
VH: QVQLQQPGAELVKPGASVKLSCKASGYSFTSYWMHWLKQRPGQGLEWIGEINPNNGRTYYNEKFKTKATLTVDKSSSTAYMQLNSLTSEDSAVYYCARRLTMVESFAYWGQGTLVTFSA
VL: DIVMTQSPSSLTVTAGEKVTMSCKSSQSLLNSGNQKNYLTWYQQKPGQPPKLLIYWASTRESGVPDRFTGSGSGTDFSLTISSVQAEDLAIYYCQNDYSYPFTFGSGTKLEIK
binds: Fel d 1 [2]

B3: Feld1-IgG4 (antibody, V domains shown)
VH: B2 VH
VL: B2 VL
binds: Fel d 1 [3]

B4: bispecific IgG4 (Bet v 1-Fel d 1) formed by Fab arm exchange of IgG4-Betv1 and IgG4-Feld1 (bispecific antibody, V domains shown)
VH 1: B1 VH
VL 1: B1 VL
VH 2: B2 VH
VL 2: B2 VL
binds: Bet v 1 [4] | Fel d 1 [5] | Bet v 1 [6] | Fel d 1 [7] | Bet v 1 [8] | Fel d 1 [9] | Bet v 1 [10] | Fel d 1 [11] | Bet v 1 [12] | Fel d 1 [13] | Bet v 1 [14] | Fel d 1 [15] | Bet v 1 [16] | Fel d 1 [17] | Bet v 1 [18] | Fel d 1 [19] | Bet v 1 [20] | Fel d 1 [21]
